# Values from PubChem BioAssay AID720505 (Drosophila RNAi Screening Center, 2013)
# Screen: 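Fly regulators or components of the CRAC channel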 (primary screen)
# System: Drosophila S2R+ cells
# Reagent: long dsRNA against Drosophila genes
# Conditions: thapsigargin (2 µM) in calcium-free buffer to empty internal stores, then 2 mM calcium added back
# Detection: 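Stores emptied by 2 µM thapsigargin without calcium, then 2 mM calcium re-added; fluo-4 fluorescence followed by FLIPR in 384-well plates, per-well averaged endpoint, raw; two screen passes, some wells retested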
# Direction: calcium signal and retest calcium signal: higher = more calcium entry after store depletion
# Rule for the call: 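About 1500 genes called as lowering calcium entry, by varying amounts, judged against per-plate control wells with STIM1 as positive and Rho1 as negative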
# Calls: active = called as lowering calcium entry; inactive = not called
# In all, the deposit lists about 20,000 reagents; shown is an unselected part of those with a known target gene and a result. In the full data, about 2,100 (10%) were called active. 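Raw plate signals without normalisation; calls rest on control-based scores that were not deposited; replicate 2 separates called from uncalled poorly.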 A number with no mark means an inactive call. The numbers tell different reagents against one gene apart. A plus sign joins genes that one reagent is predicted to hit. Reagent sequences are not shown. The record does not give: the amount of reagent, the time to read-out.
gene,reagent no.,"calcium signal, replicate 1","calcium signal, replicate 2","retest calcium signal, replicate 1","retest calcium signal, replicate 2"
nemy,1,95.3,113,,
nemy,2,162,100,120,153
Osbp,1,158,340,,
Akt,1,148,186,,
Bet5,1,106,94.8,,
CG12814,1,107,158,,
CG12814,2,113,117,,
hmw,1,224,235,,
Unc-115b + p24-2 + Unc-115a,1,64.7 (active),87.9,,
D2hgdh,1,119,152,,
Vha44,1,127,100,,
Vha44,2,138,119,,
Ppa,1,140,142,,
Wdr33,1,140,186,,
CG15536,1,147,130,13838,177
CG15536,2,95.5,108,,
CG7131,1,225,280,,
CG11997,1,109,152,,
Glut3,1,164,91.4,,
eEF1beta,1,171,92,,
Set,1,104,159,,
CG18281,1,141,106,,
Ak1,1,77.8,96.8,,
CG14315,1,122,95,,
sip3,1,172,137,,
CG11920,1,182,240,,
loco,1,150,115,,
loco,2,237,243,,
ms(3)76Ba,1,101,179,,
red,1,157,95.3,,
red,2,88.1,121,,
CG18754,1,88,104,,
CG11378,1,104,138,,
CG10140,1,90.4,116,,
CG14011,1,141,95.8,,
Uros2,1,159,209,,
msopa,1,90.9,148,,
msopa,2,88.5,171,,
GABPI,1,152,297,,
CG11674,1,84.9,82.9,,
Jon99Fii + Jon99Cii + Jon99Ciii + 1 more,1,136,126,,
Ugt307A1,1,186,94.8,,
Grip84,1,97.3,94.9,,
COX6AL2 + Ir75d,1,75.4,115,,
CG4594,1,108,139,,

Reagents above called active:
gene,reagent no.,"calcium signal, replicate 1","calcium signal, replicate 2","retest calcium signal, replicate 1","retest calcium signal, replicate 2"
Unc-115b + p24-2 + Unc-115a,1,64.7 (active),87.9,,

Next reagents follow:
gene,reagent no.,"calcium signal, replicate 1","calcium signal, replicate 2","retest calcium signal, replicate 1","retest calcium signal, replicate 2"
mRpL43,1,131,166,124,129
mRpL43,2,84.2,154,,
Tsp42A,1,213,183,,
CG32488,1,137,143,,
CG32488,2,157,88.3,,
alpha-Est10,1,145,129,,
Gbs-70E,1,103,150,,
Tbcb,1,161,113,,
RpLP0,1,67.7 (active),122,,
RpLP0,2,49 (active),164,,
dao,1,141,117,,
CanB,1,147,79.5,,
CG9631,1,151,149,,
lqfR,1,137,163,,
lqfR,2,173,116,,
B52,1,114,116,84.5,105
slx1,1,110,153,,
ppk7,1,49.6 (active),188,,
CG9338,1,98.9,90,,
CG13323,1,79.1,118,,
CG14401,1,135,115,,
CG14401,2,149,71.7,,
eEF1gamma,1,50.5 (active),76.2,,
CG31677,1,62.9,183,,
Lcp65Ag3,1,71.5 (active),42.5,112,82.9
eIF2Balpha,1,136,134,,
CG2921,1,81.9,96,,
CG2641,1,111,206,,
CG13667,1,88.8,122,,
AttB,1,126,244,,
CG7567,1,151,110,,
BORCS7 + CG13430,1,145,124,,
BORCS7 + CG13430,2,81.3,107,,
SelG,1,163,162,,
CecA1,1,74.2 (active),120,,
CG7691,1,186,122,,
CG7829,1,172,190,,
AstA-R2,1,173,151,,
